Laboratory results as given in patent publication US20190330628A1.
Results are given in words; binding and its absence hold for the method and conditions named. Binding seen in cells or lysates may run through a third protein. Some binding calls cover weakened binding; strength is not graded here.

Protein sequences, listed by entry. Tags and fused reporters are not part of them. Residues count along the entry.
UniProt Q9UKV8: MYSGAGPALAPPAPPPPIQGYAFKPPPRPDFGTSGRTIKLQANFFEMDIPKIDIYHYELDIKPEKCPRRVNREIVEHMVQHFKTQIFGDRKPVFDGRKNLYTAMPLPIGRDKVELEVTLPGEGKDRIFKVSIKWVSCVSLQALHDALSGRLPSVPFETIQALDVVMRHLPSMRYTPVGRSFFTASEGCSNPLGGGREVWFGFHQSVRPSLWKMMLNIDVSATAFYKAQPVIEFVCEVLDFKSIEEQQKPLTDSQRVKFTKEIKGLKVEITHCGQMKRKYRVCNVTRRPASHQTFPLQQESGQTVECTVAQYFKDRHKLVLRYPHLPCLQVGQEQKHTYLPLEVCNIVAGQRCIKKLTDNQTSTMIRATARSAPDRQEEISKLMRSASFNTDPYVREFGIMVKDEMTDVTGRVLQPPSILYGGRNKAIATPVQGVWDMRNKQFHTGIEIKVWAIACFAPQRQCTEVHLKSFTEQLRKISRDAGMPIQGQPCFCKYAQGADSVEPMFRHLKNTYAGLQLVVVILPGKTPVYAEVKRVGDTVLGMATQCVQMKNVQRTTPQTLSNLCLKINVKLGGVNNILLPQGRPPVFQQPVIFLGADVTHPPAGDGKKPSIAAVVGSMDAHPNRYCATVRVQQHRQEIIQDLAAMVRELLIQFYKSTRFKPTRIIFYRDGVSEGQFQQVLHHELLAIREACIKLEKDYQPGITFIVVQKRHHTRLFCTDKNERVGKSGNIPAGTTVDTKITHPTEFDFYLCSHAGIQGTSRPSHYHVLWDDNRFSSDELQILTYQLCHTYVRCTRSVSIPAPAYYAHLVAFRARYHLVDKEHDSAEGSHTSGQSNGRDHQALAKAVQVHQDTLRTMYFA
UniProt P67809, residues 2-324: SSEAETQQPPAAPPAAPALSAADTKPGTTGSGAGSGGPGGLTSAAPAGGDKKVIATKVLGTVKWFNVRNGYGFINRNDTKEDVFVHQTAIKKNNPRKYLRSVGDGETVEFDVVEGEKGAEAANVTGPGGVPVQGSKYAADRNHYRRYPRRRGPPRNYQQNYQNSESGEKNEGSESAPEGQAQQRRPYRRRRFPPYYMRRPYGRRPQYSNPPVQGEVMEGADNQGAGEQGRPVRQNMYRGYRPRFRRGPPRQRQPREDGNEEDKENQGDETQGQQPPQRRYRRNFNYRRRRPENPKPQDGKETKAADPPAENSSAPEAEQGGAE

Key:
Ago2-Flag [1] = target: Ago2-Flag (UniProt Q9UKV8); assay: co-immunoprecipitation of Ago, Western blot (FIG. 2d)
Ago2-Flag [2] = target: Ago2-Flag (UniProt Q9UKV8); assay: co-immunoprecipitation of Ago, Western blot; HA as IP and loading control

binding (Ago2-Flag [1]): binds
binding (Ago2-Flag [2]): binds
Substance: YB-1 (from UniProt P67809 2-324)
